Reference: PMC11801372
These are yes or no findings as the source states them, for the method shown. In cells and extracts the contact can be indirect. Some entries that bind do so weakly or less than the wild type. Tags and fused reporters may be left off the sequences shown.

The chains behind the UniProt entries cited, without tags or fusion partners.
UniProt Q9DBD5: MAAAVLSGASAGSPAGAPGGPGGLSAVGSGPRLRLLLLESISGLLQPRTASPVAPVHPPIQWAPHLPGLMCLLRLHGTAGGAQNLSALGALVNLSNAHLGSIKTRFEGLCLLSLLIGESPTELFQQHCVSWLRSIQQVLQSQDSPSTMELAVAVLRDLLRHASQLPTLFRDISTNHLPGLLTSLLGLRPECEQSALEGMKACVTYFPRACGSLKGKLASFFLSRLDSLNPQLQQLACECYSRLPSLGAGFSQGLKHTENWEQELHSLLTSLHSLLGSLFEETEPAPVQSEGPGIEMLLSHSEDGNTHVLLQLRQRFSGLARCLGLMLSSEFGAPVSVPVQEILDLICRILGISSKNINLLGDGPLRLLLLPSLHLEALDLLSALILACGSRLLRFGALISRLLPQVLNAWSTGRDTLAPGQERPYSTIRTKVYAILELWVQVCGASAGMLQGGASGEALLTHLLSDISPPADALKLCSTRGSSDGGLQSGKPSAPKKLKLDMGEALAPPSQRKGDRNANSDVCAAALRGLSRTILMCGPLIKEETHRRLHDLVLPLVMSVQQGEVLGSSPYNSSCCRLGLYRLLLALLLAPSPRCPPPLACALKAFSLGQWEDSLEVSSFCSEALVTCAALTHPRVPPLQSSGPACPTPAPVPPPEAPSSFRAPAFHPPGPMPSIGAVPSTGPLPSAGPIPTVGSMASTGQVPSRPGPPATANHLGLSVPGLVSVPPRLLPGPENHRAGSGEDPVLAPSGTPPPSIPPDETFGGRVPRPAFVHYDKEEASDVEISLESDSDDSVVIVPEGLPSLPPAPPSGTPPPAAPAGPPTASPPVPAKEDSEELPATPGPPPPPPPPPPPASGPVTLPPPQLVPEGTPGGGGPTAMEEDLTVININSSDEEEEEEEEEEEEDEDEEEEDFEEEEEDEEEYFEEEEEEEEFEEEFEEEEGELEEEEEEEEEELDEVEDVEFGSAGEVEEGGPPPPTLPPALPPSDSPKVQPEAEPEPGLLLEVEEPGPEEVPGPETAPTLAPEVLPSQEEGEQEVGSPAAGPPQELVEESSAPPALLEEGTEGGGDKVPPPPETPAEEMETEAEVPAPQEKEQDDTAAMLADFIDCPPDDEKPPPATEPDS

What was measured:
[1] = molecular target: T1, FLAG-NANOG (UniProt Q80Z64); assay: co-IP; anti-Flag M2 agarose beads on lysate of ESCs cultured 3 days in 2iL; TNE buffer (50 mM tris-HCl, 1 mM EDTA, 300 mM NaCl, 0.5% NP-40), sonicated, benzonase added, 2 hours at 4°C; immunoblot for SPIC-GFP
T1 sequence: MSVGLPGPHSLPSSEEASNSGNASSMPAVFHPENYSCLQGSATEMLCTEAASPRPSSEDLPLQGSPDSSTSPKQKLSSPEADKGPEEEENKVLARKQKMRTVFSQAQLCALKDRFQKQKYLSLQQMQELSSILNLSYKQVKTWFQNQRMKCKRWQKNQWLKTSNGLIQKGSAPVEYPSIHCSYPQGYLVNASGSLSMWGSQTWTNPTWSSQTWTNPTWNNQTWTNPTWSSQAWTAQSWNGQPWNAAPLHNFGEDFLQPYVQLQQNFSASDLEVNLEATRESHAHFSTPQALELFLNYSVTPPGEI

[2] = molecular target: FLAG-PELP1 (mouse) (UniProt Q9DBD5); assay: as above

binding [1]: binds
binding [2]: binds
B1: SPIC-green fluorescent protein (GFP) fusion protein (protein, UniProt Q6P3D7 1-242)
chain: MTCCIDQDSLGQTFQDAIDILIQQSAGESQYSSENRNYMAIINPYPHVRGNANYYGMSPTENPLYDWRGVTNGSADLYLEGGFHQSVQNIAESQLVQPPFFQQKGGRGRRKLRLFEYLFESLCNSEMVSCIQWVDKARGIFQFISKNKETLAELWGQRKGNRKPMTYQKMARALRNYARTGEIIKIRRKLTYQFSEAVLQRLAPANYLGKDLFYPQYGQPDQGYLSLNHWNANHYAHGSYQS
